In paper PMC8876638:
These are yes or no findings as the source states them, for the method shown. Some results given as binding are weak or reduced against the parent protein; the word gives no strength.

Sequences of proteins named here, by UniProt entry; tags and fusion partners are left off. Residues count along the entry.
UniProt P04275, residues 764-2813: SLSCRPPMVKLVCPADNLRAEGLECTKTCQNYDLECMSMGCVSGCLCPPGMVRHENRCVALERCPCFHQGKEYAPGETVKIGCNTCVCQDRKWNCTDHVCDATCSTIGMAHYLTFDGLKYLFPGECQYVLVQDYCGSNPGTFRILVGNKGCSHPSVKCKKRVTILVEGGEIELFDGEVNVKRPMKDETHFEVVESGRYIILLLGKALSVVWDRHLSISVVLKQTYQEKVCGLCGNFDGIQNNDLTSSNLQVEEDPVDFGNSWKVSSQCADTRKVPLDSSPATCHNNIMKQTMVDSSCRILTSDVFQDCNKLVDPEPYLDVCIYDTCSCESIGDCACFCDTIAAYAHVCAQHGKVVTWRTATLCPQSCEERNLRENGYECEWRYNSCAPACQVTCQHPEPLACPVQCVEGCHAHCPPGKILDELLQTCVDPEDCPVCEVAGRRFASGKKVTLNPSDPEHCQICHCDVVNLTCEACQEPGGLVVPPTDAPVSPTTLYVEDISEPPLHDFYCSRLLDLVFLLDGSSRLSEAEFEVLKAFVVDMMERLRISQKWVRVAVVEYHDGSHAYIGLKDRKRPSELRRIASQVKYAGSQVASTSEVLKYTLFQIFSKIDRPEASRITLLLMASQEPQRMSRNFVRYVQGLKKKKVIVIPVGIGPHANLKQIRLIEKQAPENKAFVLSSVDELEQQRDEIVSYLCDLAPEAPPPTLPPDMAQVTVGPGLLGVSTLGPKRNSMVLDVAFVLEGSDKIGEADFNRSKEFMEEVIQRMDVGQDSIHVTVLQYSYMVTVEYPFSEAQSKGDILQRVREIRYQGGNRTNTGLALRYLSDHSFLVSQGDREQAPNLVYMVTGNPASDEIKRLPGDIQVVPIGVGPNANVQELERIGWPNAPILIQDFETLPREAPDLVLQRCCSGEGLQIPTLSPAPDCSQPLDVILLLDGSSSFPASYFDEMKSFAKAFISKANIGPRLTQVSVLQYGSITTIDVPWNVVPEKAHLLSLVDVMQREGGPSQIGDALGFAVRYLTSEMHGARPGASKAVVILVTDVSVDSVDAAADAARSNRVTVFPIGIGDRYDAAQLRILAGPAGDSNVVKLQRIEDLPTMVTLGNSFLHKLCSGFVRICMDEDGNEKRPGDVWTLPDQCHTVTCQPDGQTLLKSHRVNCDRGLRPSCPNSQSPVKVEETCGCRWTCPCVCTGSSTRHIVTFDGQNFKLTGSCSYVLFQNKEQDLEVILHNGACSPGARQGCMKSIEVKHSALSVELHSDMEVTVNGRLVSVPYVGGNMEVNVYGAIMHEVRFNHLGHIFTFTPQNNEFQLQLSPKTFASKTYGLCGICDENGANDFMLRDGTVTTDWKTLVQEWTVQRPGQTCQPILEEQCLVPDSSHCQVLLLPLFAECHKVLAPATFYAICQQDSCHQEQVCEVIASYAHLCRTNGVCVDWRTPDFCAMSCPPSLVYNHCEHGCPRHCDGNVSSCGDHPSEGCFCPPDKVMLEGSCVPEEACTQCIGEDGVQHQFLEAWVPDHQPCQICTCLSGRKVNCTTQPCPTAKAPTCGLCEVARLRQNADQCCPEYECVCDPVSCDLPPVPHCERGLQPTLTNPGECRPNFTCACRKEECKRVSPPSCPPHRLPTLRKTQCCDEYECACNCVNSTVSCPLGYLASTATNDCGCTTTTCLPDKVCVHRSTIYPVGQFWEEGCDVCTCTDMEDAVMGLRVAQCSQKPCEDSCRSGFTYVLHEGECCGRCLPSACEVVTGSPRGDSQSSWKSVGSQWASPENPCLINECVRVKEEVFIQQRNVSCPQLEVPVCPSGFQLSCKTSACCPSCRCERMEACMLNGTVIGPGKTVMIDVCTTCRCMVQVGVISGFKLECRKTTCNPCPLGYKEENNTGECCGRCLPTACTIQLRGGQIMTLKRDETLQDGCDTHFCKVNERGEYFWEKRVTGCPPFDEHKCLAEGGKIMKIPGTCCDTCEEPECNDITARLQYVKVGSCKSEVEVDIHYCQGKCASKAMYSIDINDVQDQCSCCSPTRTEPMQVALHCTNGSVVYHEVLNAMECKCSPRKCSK

Molecular target: von Willebrand factor (human (endogenous in plasma of healthy volunteers)) (UniProt P04275)
Experiment: flow cytometry on cells; diluted PRP (1:8 in PBS) with tirofiban 1.25 µg/mL, pre-incubated with peptide (200 µg/mL) 10 min at room temperature, then ristocetin 0.5 mg/mL 6 min; fixed; platelet-bound VWF detected with FITC anti-VWF antibody; read-out is the reduction of VWF on platelets; only the binder purified

EDDNAECAYVEAEGDEARDQRSNCQDED (N-terminal acetyl (Ac-); disulfide bond between residues C7 and C24) [opt-mono-ORbIT] was tested, and the binding was “binds”.
